We go through 20 molecules from the supplement of paper PMC6658780.

Molecules are shown by their SMILES. Counter-ions that a name gives are not always drawn. ± gives the standard deviation of the averaged measurements. The list shows a part of the results. This data set is noisy: repeats of one test often differ as much as different tests do.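 Clinical A. baumannii isolates resistant to the partner antibiotic were chosen, and the screen identifies drugs restoring that antibiotic's activity. Subtracting the initial incubation reading corrects for coloured-compound background.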

The first experiment has as its system Acinetobacter baumannii WP-487. Kind of experiment: percent growth inhibition of drug + antibiotic vs DMSO control; higher = more growth inhibition. The conditions noted are these: antibiotic (0.125x MIC): colistin; 7 µM. The protocol: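 Prestwick drugs tested at 20 uM and 7 uM with an antibiotic at 0.125x MIC (16 mg/L when MIC >128 mg/L) in cation-adjusted Mueller-Hinton broth, 384-well plates, duplicate runs on different days. Percent growth inhibition was computed from OD600 (24 h minus 0 h) relative to DMSO-only wells. Drug + 0.1% DMSO (no antibiotic) wells are also given. Only hits (max corrected inhibition > mean + 3SD) are listed. A. baumannii: NCTC-13301 was used for MEM/CIP/GEN/TGC and WP-487 for colistin. Duplicates with colistin are strongly discordant (run 2 near 100% for most drugs).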
On to `Cc1cc(C(C)(C)CC(C)(C)C)ccc1OCCOCC[N+](C)(C)Cc1ccccc1` [Methyl benzethonium chloride], for which the percent growth inhibition was determined as 58.8 ± 48%.

For `Clc1cc(Cl)c(OCC#CI)cc1Cl` [Haloprogin], the percent growth inhibition is 48.5 ± 60%.

For the molecule `CC(NCCC(c1ccccc1)c1ccccc1)c1ccccc1` (stereo not given) [Fendiline hydrochloride], the percent growth inhibition was 45.6 ± 51%.

With `Cc1cc2cc3c(C)cc(=O)oc3c(C)c2o1` [Trioxsalen], the percent growth inhibition was -2.67 ± 2.3%.

`CSc1nc2cc(Cl)c(Oc3cccc(Cl)c3Cl)cc2[nH]1` [Triclabendazole]: the percent growth inhibition was determined as 49.5 ± 58%.

With `CCCCCCCCCCCCCCCC[N+](C)(C)CCN(Cc1ccc(OC)cc1)c1ncccn1` [Thonzonium bromide], the percent growth inhibition turned out to be 42.5 ± 81%.

`C1CCC(C(CC2CCCCN2)C2CCCCC2)CC1` (stereo not given) [Perhexiline maleate]: the percent growth inhibition worked out at 56 ± 51%.

As for `Nc1nc(/C(=C/CC(=O)O)C(=O)N[C@@H]2C(=O)N3C(C(=O)O)=CCS[C@H]23)cs1` [Ceftibuten], the percent growth inhibition was 20.8 ± 35%.

Consider `CCc1nn(CCCN2CCN(c3cccc(Cl)c3)CC2)c(=O)n1CCOc1ccccc1` [Nefazodone hydrochloride], for which the percent growth inhibition turned out to be 22.9 ± 47%.

For the molecule `CS(=O)(=O)c1ccc([C@@H](O)[C@@H](CF)NC(=O)C(Cl)Cl)cc1` [Florfenicol], the percent growth inhibition was determined as 62.6 ± 50%.

For the molecule `Clc1ccc(CO/N=C(\Cn2ccnc2)c2ccc(Cl)cc2Cl)c(Cl)c1` [Oxiconazole Nitrate], the percent growth inhibition stood at 50.8 ± 57%.

As to `O=C(c1ccc(OCCN2CCCCC2)cc1)c1c(-c2ccc(O)cc2)sc2cc(O)ccc12` [Raloxifene hydrochloride], the percent growth inhibition amounted to 50.3 ± 52%.

With `Cc1cccc(C)c1NC(=O)CN1CCN(CCCC(c2ccc(F)cc2)c2ccc(F)cc2)CC1` [Lidoflazine], the percent growth inhibition was determined as 1.5 ± 3%.

For the molecule `Cc1cn([C@H]2C[C@H](N=[N+]=[N-])[C@@H](CO)O2)c(=O)[nH]c1=O` [Zidovudine, AZT], the percent growth inhibition stood at 45.8 ± 60%.

For the molecule `CC(C)/N=c1\cc2n(-c3ccc(Cl)cc3)c3ccccc3nc-2cc1Nc1ccc(Cl)cc1` [Clofazimine], the percent growth inhibition was 2.95 ± 3.7%.

For the molecule `CC(C)(C)CC(C)(C)c1ccc(OCCOCC[N+](C)(C)Cc2ccccc2)cc1` [Benzethonium chloride], the percent growth inhibition stood at 56.1 ± 51%.

Take `CN(C)CCOC1=Cc2ccccc2Sc2ccc(Cl)cc21` [Zotepine]: the percent growth inhibition is 1.84 ± 2.5%.

For the molecule `Cc1cc(/C=C/c2ccc3cc(N(C)C)ccc3[n+]2C)c(C)n1-c1ccccc1` [Pyrvinium pamoate], the percent growth inhibition is 53.2 ± 56%.

As for `COc1ccccc1N1CCN(CC(O)COc2cccc3ccccc23)CC1` (stereo not given) [Naftopidil dihydrochloride], the percent growth inhibition worked out at 5.11 ± 12%.

In the case of `O=C1NCN(c2ccccc2)C12CCN(CCCC(c1ccc(F)cc1)c1ccc(F)cc1)CC2` [Fluspirilen], the percent growth inhibition stood at 51.1 ± 69%.

Staying with this experiment, now noted: antibiotic (0.125x MIC): colistin; 20 µM.
For `Cc1cc(C(C)(C)CC(C)(C)C)ccc1OCCOCC[N+](C)(C)Cc1ccccc1` [Methyl benzethonium chloride], the percent growth inhibition stood at 79 ± 24%.

For the molecule `Clc1cc(Cl)c(OCC#CI)cc1Cl` [Haloprogin], the percent growth inhibition was found to be 56.5 ± 50%.

`CC(NCCC(c1ccccc1)c1ccccc1)c1ccccc1` (stereo not given) [Fendiline hydrochloride]: the percent growth inhibition turned out to be 54.9 ± 52%.

Take `Cc1cc2cc3c(C)cc(=O)oc3c(C)c2o1` [Trioxsalen]: the percent growth inhibition was found to be 55.9 ± 62%.

`CSc1nc2cc(Cl)c(Oc3cccc(Cl)c3Cl)cc2[nH]1` [Triclabendazole]: the percent growth inhibition amounted to 59.9 ± 47%.

`CCCCCCCCCCCCCCCC[N+](C)(C)CCN(Cc1ccc(OC)cc1)c1ncccn1` [Thonzonium bromide]: the percent growth inhibition was found to be 98.3 ± 3.9%.

As for `C1CCC(C(CC2CCCCN2)C2CCCCC2)CC1` (stereo not given) [Perhexiline maleate], the percent growth inhibition worked out at 60.6 ± 45%.

On to `Nc1nc(/C(=C/CC(=O)O)C(=O)N[C@@H]2C(=O)N3C(C(=O)O)=CCS[C@H]23)cs1` [Ceftibuten], for which the percent growth inhibition is 66.4 ± 40%.

Take `CCc1nn(CCCN2CCN(c3cccc(Cl)c3)CC2)c(=O)n1CCOc1ccccc1` [Nefazodone hydrochloride]: the percent growth inhibition worked out at 53 ± 66%.

For `CS(=O)(=O)c1ccc([C@@H](O)[C@@H](CF)NC(=O)C(Cl)Cl)cc1` [Florfenicol], the percent growth inhibition came out at 97 ± 4.4%.

Consider `Clc1ccc(CO/N=C(\Cn2ccnc2)c2ccc(Cl)cc2Cl)c(Cl)c1` [Oxiconazole Nitrate], for which the percent growth inhibition was found to be 56 ± 51%.

On to `O=C(c1ccc(OCCN2CCCCC2)cc1)c1c(-c2ccc(O)cc2)sc2cc(O)ccc12` [Raloxifene hydrochloride], for which the percent growth inhibition came out at 55.5 ± 51%.

As to `Cc1cccc(C)c1NC(=O)CN1CCN(CCCC(c2ccc(F)cc2)c2ccc(F)cc2)CC1` [Lidoflazine], the percent growth inhibition came to 59.2 ± 58%.

Consider `Cc1cn([C@H]2C[C@H](N=[N+]=[N-])[C@@H](CO)O2)c(=O)[nH]c1=O` [Zidovudine, AZT], for which the percent growth inhibition was 51.7 ± 52%.

Take `CC(C)/N=c1\cc2n(-c3ccc(Cl)cc3)c3ccccc3nc-2cc1Nc1ccc(Cl)cc1` [Clofazimine]: the percent growth inhibition worked out at 48.4 ± 71%.

For `CC(C)(C)CC(C)(C)c1ccc(OCCOCC[N+](C)(C)Cc2ccccc2)cc1` [Benzethonium chloride], the percent growth inhibition stood at 98.5 ± 1.9%.

In the case of `CN(C)CCOC1=Cc2ccccc2Sc2ccc(Cl)cc21` [Zotepine], the percent growth inhibition was 55.7 ± 63%.

As for `Cc1cc(/C=C/c2ccc3cc(N(C)C)ccc3[n+]2C)c(C)n1-c1ccccc1` [Pyrvinium pamoate], the percent growth inhibition stood at 54.7 ± 57%.

Take `COc1ccccc1N1CCN(CC(O)COc2cccc3ccccc23)CC1` (stereo not given) [Naftopidil dihydrochloride]: the percent growth inhibition worked out at 48.4 ± 73%.

`O=C1NCN(c2ccccc2)C12CCN(CCCC(c1ccc(F)cc1)c1ccc(F)cc1)CC2` [Fluspirilen]: the percent growth inhibition was 97.6 ± 2.8%.
